The values below come from the supplement of paper PMC6414424.

Molecules are shown by their SMILES. ± gives the standard deviation of the averaged measurements. Some of the results follow.

For the assay, the system named is APPdp1-6 iPSC-derived neurons. In words: pThr231Tau/total Tau ratio Z-score vs DMSO vehicle wells; higher = more pThr231Tau relative to total Tau. The note with it: 5 µM; treatment time 5 days.
In the case of `O=C1C(=O)c2ccccc2C(O)=C1C1CCC(c2ccc(Cl)cc2)CC1` (centres undefined) [Prestw-534], the “pThr231Tau/total Tau ratio Z-score” value is -0.945 ± 0.7.
`C[C@@H]1C[C@H]2[C@@H]3C[C@H](F)C4=CC(=O)C=C[C@]4(C)[C@@]3(F)[C@@H](O)C[C@]2(C)[C@@]1(O)C(=O)COC(=O)C(C)(C)C`: the “pThr231Tau/total Tau ratio Z-score” value was found to be 1.22 ± 0.75.
Consider `CO[C@H]1C[C@H](O[C@H]2[C@H](C)[C@@H](O[C@@H]3O[C@H](C)C[C@H](N(C)C)[C@H]3O)[C@@H](C)C[C@@]3(CO3)C(=O)[C@H](C)[C@@H](O)[C@@H](C)[C@@H](C)OC(=O)[C@@H]2C)O[C@@H](C)[C@@H]1O`, for which the “pThr231Tau/total Tau ratio Z-score” value turned out to be 0.51 ± 0.74.
Then `Nc1ccc(S(=O)(=O)Nc2ccccn2)cc1` [Prestw-762], with -0.709 ± 0.6; and `O=c1[nH]c(=O)c2ccccc2o1`, with 0.311 ± 1.3; and `Nc1ccn([C@@H]2O[C@H](CO)[C@@H](O)[C@@H]2O)c(=O)n1` [Prestw-1134], with 0.82 ± 0.51.
As for `CC(C)(C)c1ccc(C(O)CCCN2CCC(C(O)(c3ccccc3)c3ccccc3)CC2)cc1` (centres undefined) [Prestw-138], the figure is -3.55 ± 0.24; as for `CC(COc1ccccc1)NC(C)C(O)c1ccc(O)cc1` (centres undefined) [Prestw-68], 1.33 ± 0.75.
As for `CCCCN1CCCCC1C(=O)Nc1c(C)cccc1C` (centres undefined) [Prestw-305], the figure is -0.852 ± 0.48; as for `CCOC(=O)NNc1nncc2ccccc12` [Prestw-71], 0.531 ± 1.1.
Take `CCN(CCO)CCCC(C)Nc1ccnc2cc(Cl)ccc12` (centres undefined) [Prestw-1284]: the “pThr231Tau/total Tau ratio Z-score” value was found to be 0.551 ± 2.3.
Then `COc1ccc(CC2c3cc(OC)c(OC)cc3CC[N+]2(C)CCC(=O)OCCCCCOC(=O)CC[N+]2(C)CCc3cc(OC)c(OC)cc3C2Cc2ccc(OC)c(OC)c2)cc1OC` (centres undefined) [Prestw-5], with -0.677 ± 0.47.
Then `CC(=O)[C@H]1CC[C@H]2[C@@H]3CC=C4C[C@@H](O)CC[C@]4(C)[C@H]3CC[C@]12C` [Prestw-546], with 0.381 ± 0.58.
Turning to `CN(C)c1ccc(C(=C2C=CC(=[N+](C)C)C=C2)c2ccc(N(C)C)cc2)cc1`, the “pThr231Tau/total Tau ratio Z-score” value was -3.62 ± 1.6.
Take `CSc1ccc2c(c1)N(CCC1CCCCN1C)c1ccccc1S2` (centres undefined) [Prestw-78]: the “pThr231Tau/total Tau ratio Z-score” value is -2 ± 0.26.
As for `CC/C(=C(/CC)c1ccc(O)cc1)c1ccc(O)cc1` [Prestw-756], the figure is -0.626 ± 0.015.
In the case of `CC1=C(/C=C/C(C)=C/C=C/C(C)=C\C(=O)O)C(C)(C)CCC1` [Prestw-256], the “pThr231Tau/total Tau ratio Z-score” value is 1.56 ± 1.2.
Then `Cc1cc(-c2ccccc2)nnc1NCCN1CCOCC1` [Prestw-66], with 0.407 ± 0.91; and `NC(N)=Nc1nc(CSCC/C(N)=N/S(N)(=O)=O)cs1` [Prestw-104], with 0.221 ± 0.43; and `COc1cc(-c2ccc(=O)[nH]n2)ccc1OC(F)F` [Prestw-977], with 0.105 ± 1.1.
Then `CCCCC1(COC(=O)CCC(=O)O)C(=O)N(c2ccccc2)N(c2ccccc2)C1=O` [Prestw-658], with 0.561 ± 0.019.
`COc1cc(NC(C)CCCN)c2ncccc2c1` (centres undefined) [Prestw-476]: the “pThr231Tau/total Tau ratio Z-score” value is -2.34 ± 0.55.
As for `CCCCNc1c(C(=O)OCC)c(C)nc2c1cnn2CC` [Prestw-976], the figure is -0.229 ± 0.059; as for `C[C@]12CC[C@@H]3c4ccc(OS(=O)(=O)O)cc4CC[C@H]3[C@@H]1CCC2=O` [Prestw-688], 0.229 ± 0.55.
As for `C[C@]12CC[C@@H]3c4ccc(OS(=O)(=O)O)cc4CC[C@H]3[C@@H]1CCC2=O` [ESTROPIPATE, estrogen], the figure is -0.408 ± 0.42.
As for `COc1cccc(OC)c1C(=O)N[C@@H]1C(=O)N2[C@@H]1SC(C)(C)[C@@H]2C(=O)O` [METHICILLIN SODIUM    Therap cat: antibacterial], the figure is 0.744 ± 1.4; as for `Cc1ccc(S(=O)(=O)NC(=O)NN2CCCCCC2)cc1` [Prestw-554], 0.537 ± 0.88.
Regarding `CC(C)(C)CC(C)(C)c1ccc(O)c(Cc2ccc(Cl)cc2Cl)c1` [CLOFOCTOL    Therap cat: antibacterial], the “pThr231Tau/total Tau ratio Z-score” value turned out to be 0.303 ± 2.1.
Turning to `OC(CCCN1CCCCC1)(c1ccccc1)c1ccccc1` [Prestw-252], the “pThr231Tau/total Tau ratio Z-score” value was -1.14 ± 0.54.
Take `CCN(CC)CCOC(=O)C(c1ccccc1)c1ccccc1` [Prestw-75]: the “pThr231Tau/total Tau ratio Z-score” value was -0.274 ± 0.068.
Then `CCOC(=O)c1ccc(N)cc1` [Prestw-712], with -0.773 ± 0.58; and `Nc1nc(NC2CC2)c2ncn([C@H]3C=C[C@@H](CO)C3)c2n1` [Prestw-1512], with -0.134 ± 0.33.
Then `O=C(COc1ccc(Cl)cc1)N1CCN(Cc2ccc3c(c2)OCO3)CC1` [Prestw-298], with 0.644 ± 1.4; and `CNC(C)CCC=C(C)C` (centres undefined) [Prestw-1023], with 1.33 ± 0.36.
Then `CN(Cc1cnc2nc(N)nc(N)c2n1)c1ccc(C(=O)N[C@@H](CCC(=O)O)C(=O)O)cc1` [Prestw-373], with 0.939 ± 0.79; and `CN(Cc1cnc2nc(N)nc(N)c2n1)c1ccc(C(=O)N[C@@H](CCC(=O)O)C(=O)O)cc1` [Prestw-135], with 0.881 ± 1.1; and `CCOc1ccc2nc3cc(N)ccc3c(N)c2c1`, with -2.67 ± 0.13.
Regarding `CCN(CC)CCNc1ccc(CO)c2sc3ccccc3c(=O)c12` [Prestw-355], the “pThr231Tau/total Tau ratio Z-score” value is -1.29 ± 1.2.
As for `Cc1ccsc1/C=C/C1=NCCCN1C` [Prestw-61], the figure is 0.0271 ± 0.85; as for `COc1cc(C=CC(=O)O)cc(OC)c1O`, -0.0194 ± 0.56; as for `Cc1cnc(C(=O)NCCc2ccc(S(=O)(=O)NC(=O)NC3CCCCC3)cc2)cn1` [Prestw-131], 1.52 ± 0.63.
As for `O=C1[C@H](CC[C@H](O)c2ccc(F)cc2)[C@@H](c2ccc(O)cc2)N1c1ccc(F)cc1` [EZETIMIBE, sterol absorption inhibitor], the figure is 1.39 ± 0.25; as for `O=S(=O)(O)c1cc(I)c(O)c2ncccc12`, -0.422 ± 0.68; as for `COc1ccccc1N1CCN(CCCCNC(=O)c2ccc3ccccc3c2)CC1` [Prestw-559], -0.0907 ± 0.047.
Then `CCC1NC(=O)c2cc(S(N)(=O)=O)c(Cl)cc2N1` (centres undefined) [Prestw-1050], with -0.518 ± 0.093; and `CC(O)(P(=O)(O)O)P(=O)(O)O` [Prestw-863], with 0.0236 ± 0.71; and `CCN(CC)CCOc1ccc(C(=C(Cl)c2ccccc2)c2ccccc2)cc1` [Prestw-397], with -1.47 ± 1.7.
As for `CCCCNc1ccc(C(=O)OCCN(C)C)cc1` [Prestw-571], the “pThr231Tau/total Tau ratio Z-score” value was -0.64 ± 0.23.
As for `CN1CCOC(c2ccccc2)c2ccccc2C1` (centres undefined) [Prestw-229], the figure is 0.241 ± 0.65; as for `COC(=O)Nc1nc2ccc(C(=O)c3ccc(F)cc3)cc2[nH]1` [Prestw-1416], -4.12 ± 0.1; as for `CN1CCC(=C2c3ccccc3CCc3sccc32)CC1` [Prestw-992], 1.44 ± 3.5.
Then `Cc1ccccc1C(OCCN(C)C)c1ccccc1` (centres undefined) [Prestw-239], with 0.0199 ± 0.7; and `NC(=O)NC1NC(=O)NC1=O` (centres undefined) [Prestw-2], with 0.593 ± 0.61; and `CN(C)CCOC(c1ccc(Cl)cc1)c1ccccn1` (centres undefined) [Prestw-801], with 0.148 ± 1.5.
